Source: PubChem BioAssay AID2685 (National Center for Advancing Translational Sciences (NCATS), 2010)
Some of the results follow. Shown are side measurements of this screen, not its main read-out; they come without a call. Compounds called inactive in the main read-out are mostly missing here. Potencies come from curve fits of mixed quality, noted in brackets.

Assay: qHTS Assay for Lipid Storage Modulators in Drosophila S3 Cells;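 on cell number change: cells counted by Cell Tracker Red CMTPX staining in the red channel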
Settings: BODIPY lipid droplet fluorescence, 18-24 h; for cell number change: measured here: cell count max response, cells fed with added oleic acid
Procedure, shortened: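 Drosophila S3 cells got compounds at several concentrations plus oleic acid (400 uM solution). Laser-scanning cytometry with 488 nm excitation read lipid droplets at 500-530 nm and cells at 575-640 nm. Percent activity was relative to 20 uM Triacsin C.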

[1] = measured here: cell number channel AC50, cells fed with added oleic acid
[2] = measured here: lipid fluorescence (Fed channel) AC50, cells fed with added oleic acid

Row | SMILES | cell number change [%] | AC50 [1] | AC50 [2]
1 | O=C(c1cccc(S(=O)(=O)N2CCOCC2)c1)N(Cc1ccc(F)cc1)Cc1ccco1 | -4 | 0.00517 µM [falling, full curve, poor fit] | 0.651 µM [falling, partial curve, poor fit]
2 | C[C@@H](NC(=O)OC(C)(C)C)c1nnc(S(=O)(=O)Cc2ccccc2)o1 | -58.4 | 8.2 µM [falling, partial curve] | 7.31 µM [falling, partial curve]
3 | O=C(CCc1ccccc1)Nc1c(F)c(F)c(F)c(F)c1F | 2.51 | 4.11 µM [falling, single point] | 29.1 µM [falling, single point]
4 | O=C(CSc1nc2ccccc2o1)NCc1n[nH]c(=O)c2ccccc12 | -7.87 | – | 0.00651 µM [falling, full curve, poor fit]
5 | COc1ccccc1CNC(=O)c1ccc(-c2ccccc2Cl)o1 | -2.34 | – | 7.31 µM [rising, partial curve, poor fit]
6 | O=C(Nc1ccc(Cl)cc1)N1CCCN(c2ccc(C(F)(F)F)cc2[N+](=O)[O-])CC1 | -15.5 | – | –
7 | CNC(=O)c1cc2c(ccc3ccccc32)oc1=N | -37.5 | 23.1 µM [falling, single point] | 29.1 µM [falling, single point]
8 | CC(NC(=O)CSc1cccc(C(F)(F)F)c1)c1ccccc1 (configuration not stated) | 25.4 | – | 29.1 µM [rising, single point]
9 | O=C(c1ccc(Br)cc1)C(CN1CCOCC1)c1ccccc1 (configuration not stated) | -66.3 | 18.4 µM [falling, partial curve] | 20.6 µM [falling, single point]
10 | Cc1ccc(S(=O)(=O)Oc2ccccc2/C=N/NC(N)=S)cc1 | 36.3 | 0.092 µM [rising, full curve, poor fit] | 0.366 µM [rising, full curve]
11 | CCOc1ccccc1NC(=O)/C=C/C(N)=O | -83.4 | 7.31 µM [falling, partial curve, poor fit] | 0.146 µM [falling, full curve]
12 | CC(=O)C1=C(C)OC(N)=C(C#N)C1c1ccncc1 (configuration not stated) | 95.9 | 16.4 µM [rising, partial curve] | –
13 | CCOc1ccc(N(C)S(=O)(=O)c2cc(-c3cc(C)no3)ccc2C(C)C)cc1 | 27.2 | – | 2.06 µM [rising, partial curve]
14 | COc1ccc(N2CC(C(=O)Nc3ccc(S(=O)(=O)Nc4nccs4)cc3)CC2=O)c(OC)c1 (configuration not stated) | -26.9 | – | –
15 | CCN(C(=O)COC(=O)Cc1coc2cc(C)ccc12)c1c(N)n(Cc2ccccc2)c(=O)[nH]c1=O | -8.46 | 0.731 µM [falling, single point] | 0.82 µM [falling, single point]
16 | CC(C)(C)NC(=O)CSc1ccc(S(=O)(=O)N2CCOCC2)cn1 | -1.93 | – | 29.1 µM [rising, single point]
17 | CCOC(=O)CNC(=S)N(Cc1ccco1)Cc1ccccc1Cl | 19 | – | –

Row | SMILES | cell number change [%] | AC50 [1] | AC50 [2]
18 | O=C(COc1ccc(Cl)cc1Cl)OCn1nnc2ccccc2c1=O | -11.9 | – | 7.31 µM [falling, single point]
19 | Cc1nn(C)cc1CNC(=O)c1ccc(F)cc1 | 6.23 | – | 0.184 µM [falling, full curve, poor fit]
20 | CCc1cc(Cn2nc(-c3ccccc3)cc2C(=O)O)on1 | -9.04 | 1.3 µM [falling, partial curve] | 1.16 µM [falling, full curve]
21 | COc1ccc(/C=N\NC(=O)c2ccccc2OC)cc1COc1ccccc1C | -12.4 | – | 18.4 µM [falling, single point]
22 | Cc1ccsc1/C=C1\CCc2ccccc2C1=O | 93 | 16.4 µM [rising, partial curve] | 18.4 µM [rising, partial curve]
23 | CC(C)[C@@H]1COC(c2cccc(C3=N[C@H](C(C)C)CO3)n2)=N1 | 13.6 | – | 2.59 µM [rising, full curve, poor fit]
24 | CC1(c2ccccc2)NC(=O)N(CC(=O)N2CCOCC2)C1=O (configuration not stated) | -18.1 | – | 7.31 µM [falling, partial curve]
25 | N#CCCCSc1nnc(-c2ccccn2)o1 | 3.95 | – | –
26 | CCc1ccc(OCCCCCn2ccnc2)cc1 | – | – | 29.1 µM [falling, single point]
27 | CCC(NC(=O)NCc1cccnc1)(C(F)(F)F)C(F)(F)F | 2.46 | – | 29.1 µM [rising, partial curve, poor fit]
28 | Cc1cc(C(=O)NC2CC(C)(C)Cc3c2cnn3-c2ccccc2)n(C)n1 (configuration not stated) | -15.6 | – | 0.58 µM [falling, single point]
29 | COc1cc(OC)c(C2=NOC(C(=O)N3CCCc4ccccc43)C2)cc1Cl (configuration not stated) | -77.4 | 3.66 µM [falling, full curve] | 9.2 µM [falling, partial curve]
30 | CSc1sc(-c2ccnc(SCC(=O)C(C)(C)C)n2)c2c1C(=O)CC(C)(C)C2 | 21.1 | 0.184 µM [rising, full curve, poor fit] | –
31 | O=C(NCCN1C(=O)S/C(=C\c2ccc(Cl)c(Cl)c2)C1=O)c1ccc2c(c1)C(=O)N(Cc1ccncc1)C2=O | -33 | 14.6 µM [falling, single point] | 20.6 µM [falling, single point]
32 | Cc1ccnc(N2CCC(C(=O)Nc3ccc(Oc4ccccc4)cc3)CC2)n1 | 12.5 | – | 29.1 µM [rising, single point]
33 | Nc1ncn([C@H]2C[C@H](O)[C@@H](CO)O2)c(=O)n1 | -30.4 | 0.366 µM [falling, partial curve, poor fit] | 0.184 µM [falling, full curve]
34 | CC(=O)c1ccc(OCC(=O)OCC(=O)N(CC(C)C)c2c(N)n(Cc3ccccc3)c(=O)[nH]c2=O)cc1 | -93.6 | 25.9 µM [falling, partial curve, poor fit] | 29.1 µM [falling, single point]

Some values from the results shown:
Entry of `CSc1sc(-c2ccnc(SCC(=O)C(C)(C)C)n2)c2c1C(=O)CC(C)(C)C2` under AC50 [1]: 0.184 µM [rising, full curve, poor fit]
Entry of `CCN(C(=O)COC(=O)Cc1coc2cc(C)ccc12)c1c(N)n(Cc2ccccc2)c(=O)[nH]c1=O` under cell number change [%]: -8.46
